Like-named read-outs stand apart in the source and are kept apart here. These are yes or no findings as the source states them, for the method shown. A result given as binding can be weak or reduced; the word gives no strength. Tags and fused reporters may be left off the sequences shown. Blank lines part the entries; values can stand above or below the binder they belong to.
Assays:
Test in all cases: pull-down
[1] = molecular target: MBP-His-OsSMAX1-D1M (218-541) (rice (Oryza sativa))
[2] = molecular target: MBP-His-OsSMAX1-D2 (638-1041) (rice (Oryza sativa))
[3] = molecular target: MBP-His-tagged full-length OsSMAX1 (residues 2-1041) (rice (Oryza sativa))
[4] = molecular target: MBP-His-OsSMAX1-D2 (638-1041) (rice (Oryza sativa)); remark: listed apart in the source
[5] = molecular target: MBP-His-tagged full-length OsSMAX1 (residues 2-1041) (rice (Oryza sativa)); remark: listed apart in the source
[6] = molecular target: MBP-His-OsSMAX1-D1M (218-541) (rice (Oryza sativa)); remark: listed apart in the source

- binding [1]: binds
- binding [2]: binds
- binding [3]: binds
- binding [4]: binds weakly
- binding [5]: binds
- binding [6]: binds
B1: Glutathione-S-transferase (GST)-tagged D14L (receptor, rice (Oryza sativa), UniProt Q10J20 1-271, looked up)
chain: MGIVEEAHNLRVVGEGKRGVIVLAHGFGTDQSVWKHLVPHLVADYRVVLFDTMGAGPTNPDYFDFSRYATLEGYALDLLAILQELRVASCIYVGHSVSAVIGAIASISRPDLFSKLVLLSASPRYLNDVDYYGGFEQEDLDELFEAMGSNYKAWCSGFAPLCVGGDMESVAVQEFSRTLFNIRPDIALSVAQTIFQSDVRSLLPLVTVPCHIVQSTKDLAVPVVVSEYLHKHLGGDSIVEVMPSEGHLPQLSSPDIVIPVLLRHIQHDIAV

- binding [2]: binds
B2: GST-D14 (50-318) (receptor, rice (Oryza sativa), UniProt Q10QA5 50-318, looked up)
chain: APSGAKLLQILNVRVVGSGERVVVLSHGFGTDQSAWSRVLPYLTRDHRVVLYDLVCAGSVNPDHFDFRRYDNLDAYVDDLLAILDALRIPRCAFVGHSVSAMIGILASIRRPDLFAKLVLIGASPRFLNDSDYHGGFELEEIQQVFDAMGANYSAWATGYAPLAVGADVPAAVQEFSRTLFNMRPDISLHVCQTVFKTDLRGVLGMVRAPCVVVQTTRDVSVPASVAAYLKAHLGGRTTVEFLQTEGHLPHLSAPSLLAQVLRRALARY
